The results in this text go back to paper doi:10.1101/2021.08.20.457118.

In assay [1] the target is CHN-1::FLAG (C. elegans). Description: co-IP.
Assay [2] concerns the target CHN-1 (untagged recombinant) (C. elegans). Description: HDX-MS.

These are yes or no findings as the source states them, for the method shown. Binding can be weak; no strength is given. For part of these data: Where a sequence is shown, tags or fusion partners need not be part of it. For part of these data: In cells and extracts the contact can be indirect.

B1: UFD-2 (endogenous in worms) (enzyme, UniProt Q09349 1-984)
chain: MIEDEKAGLQPMDISDASVFFFQADVESKDFLTSLFDCEGKSDDRMLRYADAIIDVQNLNFDVSPQCLQSNIAEIITKFVLLSQDGSRRGLSRSFNFIDPDIIAGCREEDAIEFLLINFVRCHHELGKSGTSNCYKKTLESTRKAVFSVFVMIQRGYLESQLRSQHASLVFTKRLLEDTVSNVFLRTLVEYLASTDECDEDAITETFNPIFGILRSGIICQRFEDNKDEIVRQILRVMNLLLSIRLPSNGPRPLSNLLVNREDFLPTPSEKIQGREFGLMSFLGPFFSYGLESSARRPNHRVFVDCEEDARKYDGSVNTEQKLYFQRMDPIRTMLHQLMLPLASDQGSRNKTLRWIATIISTNDIRTRSHYDPSDVLCDHYMTNFLSVMYMFSEKIDLSKIIVDYPFLPSSLINISKETRLKMDESGAVAFASQFADRPDEYHFSTVCFFLTIAAQRLVIPPLMNQISEYSRHLKELKHKINALKEKLNTVSGFERAEVEKKLNYETEHWKLMSRHLLCVKTQAQDPALMASSMDFVDKQMKFILNLLCDNLDLLGDDSQLPTEVSQMFCALPEYFLEDALDFYIFAISNGMKLLMERNADWISRLTVLFTQYHYIKSPFLVSKLVRVLSSIQPPLWFNVVRLRMAQENLLMCMIKFYSDFEDNGDFYEKFNVRGNIQYMLEKMEEDMFYKGKFMDMARECGAEFIRFVNMVINDATWCIDESLSGLKSIHDVEKKMANKVEWDNTDQEIRNQDLGVYEEAKRKVKGWLGTAKSNLKLLLSITVNSPEPFRTPVLGERLAAMLNHNLSQLIGSKASELKVKDPRSYGWEPREFVSLLISIYLKLNMPAFVKYIAYDERTYSPEFFHNAIECMRKNSIVGFSQLESFEHLAEDVKKEYEAKAELEEEYDDVPEEFKDPIMDAIMVDPVKLPSGHVMDRAVIERHLLSTPNNPFNRAPLSHNELSPDSELKAKIQEWICQKRNSKK
In the case of B1, the binding result in assay [1] is “binds”.

B2: His-tagged UFD-2 (enzyme, UniProt Q09349 1-984)
chain: B1 chain
As for B2, the binding entry in assay [2] is “binds”.

B3: AHCY-1 (endogenous in worms) (enzyme, UniProt P27604 1-437)
chain: MAQSKPAYKVADIKLADFGRKEIILAENEMPGLMAMRSKYGPSQPLKGARIAGCLHMTIQTAVLIETLTALGAEVQWSSCNIFSTQDHAAAAIAQTGVPVYAWKGETDEEYEWCIEQTIVFKDGQPLNMILDDGGDLTNLVHAKYPQYLAGIRGLSEETTTGVHNLAKMLAKGDLKVPAINVNDSVTKSKFDNLYGIRESLPDGIKRATDVMLAGKVAVVAGYGDVGKGSAASLKAFGSRVIVTEIDPINALQAAMEGYEVTTLEEAAPKANIIVTTTGCKDIVTGKHFELLPNDAIVCNVGHFDCEIDVKWLNTNATKKDTIKPQVDRYTLKNGRHVILLAEGRLVNLGCATGHPSFVMSNSFTNQVLAQVELWTKFGTPQEYKLGLYVLPKTLDEEVAYLHLAQLGVKLTKLSDEQASYLGVPVAGPYKPDHYRY
On to B3, for which, in assay [1], the binding entry is on record as “binds”.
